Some of the results follow. Most values lie at the level of the controls, where differences are scatter.
The targets below were run with CC1(C)S[C@@H]2[C@H](NC(=O)[C@H](N)c3ccccc3)C(=O)N2[C@H]1C(=O)O [ampicillin] (assay: log2 fold change of tryptic peptide abundance, ligand vs vehicle (limited proteolysis) (log2 ratio); higher = more trypsin-susceptible (destabilized)). Conditions: ligand concentration: 10 uM; sample: E. coli crude lysate.

Chains of the proteins cited; added tags and fusions are not shown. Lines headed by an entry give the natural chain unless they say otherwise; changes in a name come on top.
UniProt P21693: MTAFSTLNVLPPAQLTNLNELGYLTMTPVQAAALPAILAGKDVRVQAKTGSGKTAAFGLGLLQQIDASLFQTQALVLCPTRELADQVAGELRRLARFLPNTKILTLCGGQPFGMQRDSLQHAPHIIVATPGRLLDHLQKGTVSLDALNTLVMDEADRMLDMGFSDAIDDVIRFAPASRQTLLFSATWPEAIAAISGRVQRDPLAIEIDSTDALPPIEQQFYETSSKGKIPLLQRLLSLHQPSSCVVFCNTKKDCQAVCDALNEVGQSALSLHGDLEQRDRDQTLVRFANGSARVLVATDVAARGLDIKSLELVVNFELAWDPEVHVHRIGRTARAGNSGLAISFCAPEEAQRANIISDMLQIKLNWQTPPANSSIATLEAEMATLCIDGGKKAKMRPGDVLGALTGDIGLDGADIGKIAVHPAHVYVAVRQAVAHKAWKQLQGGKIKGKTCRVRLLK
UniProt P23524: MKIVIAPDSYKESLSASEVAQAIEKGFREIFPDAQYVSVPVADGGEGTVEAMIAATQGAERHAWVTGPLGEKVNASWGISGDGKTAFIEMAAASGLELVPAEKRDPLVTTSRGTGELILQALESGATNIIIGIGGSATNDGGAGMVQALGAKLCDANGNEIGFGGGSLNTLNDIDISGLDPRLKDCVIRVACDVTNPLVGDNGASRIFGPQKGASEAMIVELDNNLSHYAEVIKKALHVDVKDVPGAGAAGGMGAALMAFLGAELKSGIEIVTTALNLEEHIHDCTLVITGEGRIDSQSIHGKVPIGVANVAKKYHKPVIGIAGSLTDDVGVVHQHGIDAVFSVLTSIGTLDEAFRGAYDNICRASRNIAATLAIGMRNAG
UniProt P17846: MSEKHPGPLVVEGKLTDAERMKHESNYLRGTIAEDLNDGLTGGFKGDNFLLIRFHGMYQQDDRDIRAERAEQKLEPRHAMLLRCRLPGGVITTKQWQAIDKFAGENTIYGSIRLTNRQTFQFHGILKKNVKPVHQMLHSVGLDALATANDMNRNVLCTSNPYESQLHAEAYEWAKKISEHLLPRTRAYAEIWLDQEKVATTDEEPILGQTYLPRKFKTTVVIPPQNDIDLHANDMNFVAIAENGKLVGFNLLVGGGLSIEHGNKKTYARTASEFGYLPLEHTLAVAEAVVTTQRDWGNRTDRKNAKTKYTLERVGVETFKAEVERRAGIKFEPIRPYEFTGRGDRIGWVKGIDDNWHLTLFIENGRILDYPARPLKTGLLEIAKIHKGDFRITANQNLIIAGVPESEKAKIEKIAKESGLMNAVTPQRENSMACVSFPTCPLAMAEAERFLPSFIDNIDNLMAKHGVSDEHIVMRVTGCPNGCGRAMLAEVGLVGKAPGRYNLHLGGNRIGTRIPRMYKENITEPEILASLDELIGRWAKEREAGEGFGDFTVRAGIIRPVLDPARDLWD
UniProt P10371: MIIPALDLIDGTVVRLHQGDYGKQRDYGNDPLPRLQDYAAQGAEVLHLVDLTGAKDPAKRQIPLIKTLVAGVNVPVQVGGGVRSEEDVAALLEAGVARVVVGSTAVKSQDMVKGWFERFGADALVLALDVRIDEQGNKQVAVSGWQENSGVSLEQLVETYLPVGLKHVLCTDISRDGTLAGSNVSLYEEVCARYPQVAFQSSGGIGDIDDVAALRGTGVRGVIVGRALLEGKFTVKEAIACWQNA
UniProt P11072: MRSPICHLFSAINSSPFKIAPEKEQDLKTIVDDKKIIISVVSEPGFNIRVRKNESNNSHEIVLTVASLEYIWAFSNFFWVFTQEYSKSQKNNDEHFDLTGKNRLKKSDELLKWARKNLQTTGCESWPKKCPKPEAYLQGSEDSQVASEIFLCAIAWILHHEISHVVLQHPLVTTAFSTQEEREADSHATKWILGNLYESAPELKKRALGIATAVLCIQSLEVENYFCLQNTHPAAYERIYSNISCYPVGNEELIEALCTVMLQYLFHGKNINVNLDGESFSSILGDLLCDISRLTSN
UniProt P23894: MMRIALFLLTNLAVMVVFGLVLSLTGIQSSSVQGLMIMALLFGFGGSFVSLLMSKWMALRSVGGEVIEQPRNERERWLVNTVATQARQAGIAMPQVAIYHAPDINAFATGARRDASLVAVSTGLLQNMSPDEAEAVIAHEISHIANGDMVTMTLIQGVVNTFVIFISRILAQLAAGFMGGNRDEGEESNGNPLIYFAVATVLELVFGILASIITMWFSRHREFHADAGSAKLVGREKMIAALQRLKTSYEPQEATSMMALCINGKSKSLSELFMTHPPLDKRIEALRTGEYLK
UniProt P10378: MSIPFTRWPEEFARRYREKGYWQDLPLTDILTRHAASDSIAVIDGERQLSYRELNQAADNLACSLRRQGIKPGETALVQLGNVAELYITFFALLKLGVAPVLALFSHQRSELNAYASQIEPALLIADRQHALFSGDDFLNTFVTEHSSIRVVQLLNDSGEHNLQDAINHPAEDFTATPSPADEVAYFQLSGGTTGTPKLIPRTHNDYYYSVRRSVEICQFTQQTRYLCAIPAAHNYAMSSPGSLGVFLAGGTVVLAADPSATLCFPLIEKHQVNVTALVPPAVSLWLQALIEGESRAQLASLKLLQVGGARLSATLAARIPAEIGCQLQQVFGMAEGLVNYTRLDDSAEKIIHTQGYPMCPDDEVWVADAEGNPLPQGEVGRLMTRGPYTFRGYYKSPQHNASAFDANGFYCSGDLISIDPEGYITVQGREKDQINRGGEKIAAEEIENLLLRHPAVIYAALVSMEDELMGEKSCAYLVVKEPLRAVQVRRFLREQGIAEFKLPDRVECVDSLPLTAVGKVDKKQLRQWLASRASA
UniProt P21362: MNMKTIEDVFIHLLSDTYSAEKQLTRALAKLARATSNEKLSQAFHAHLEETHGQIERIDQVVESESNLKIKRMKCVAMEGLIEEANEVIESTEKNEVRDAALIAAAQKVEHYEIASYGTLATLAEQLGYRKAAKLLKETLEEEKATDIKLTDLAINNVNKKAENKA
UniProt P17117: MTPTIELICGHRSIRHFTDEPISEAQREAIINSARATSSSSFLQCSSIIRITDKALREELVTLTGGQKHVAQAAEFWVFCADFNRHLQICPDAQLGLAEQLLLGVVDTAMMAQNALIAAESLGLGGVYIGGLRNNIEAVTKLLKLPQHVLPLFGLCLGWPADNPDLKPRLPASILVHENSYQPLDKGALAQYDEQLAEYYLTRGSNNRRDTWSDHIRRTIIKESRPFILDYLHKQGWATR
UniProt P0CF79: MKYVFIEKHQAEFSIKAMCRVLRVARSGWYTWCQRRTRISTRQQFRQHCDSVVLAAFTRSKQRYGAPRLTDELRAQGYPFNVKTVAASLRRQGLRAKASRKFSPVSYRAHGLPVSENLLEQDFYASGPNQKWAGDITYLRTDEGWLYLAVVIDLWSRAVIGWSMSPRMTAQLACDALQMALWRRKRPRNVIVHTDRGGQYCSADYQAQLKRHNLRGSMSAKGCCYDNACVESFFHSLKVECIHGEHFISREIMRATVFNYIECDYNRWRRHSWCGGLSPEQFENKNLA
UniProt P12281: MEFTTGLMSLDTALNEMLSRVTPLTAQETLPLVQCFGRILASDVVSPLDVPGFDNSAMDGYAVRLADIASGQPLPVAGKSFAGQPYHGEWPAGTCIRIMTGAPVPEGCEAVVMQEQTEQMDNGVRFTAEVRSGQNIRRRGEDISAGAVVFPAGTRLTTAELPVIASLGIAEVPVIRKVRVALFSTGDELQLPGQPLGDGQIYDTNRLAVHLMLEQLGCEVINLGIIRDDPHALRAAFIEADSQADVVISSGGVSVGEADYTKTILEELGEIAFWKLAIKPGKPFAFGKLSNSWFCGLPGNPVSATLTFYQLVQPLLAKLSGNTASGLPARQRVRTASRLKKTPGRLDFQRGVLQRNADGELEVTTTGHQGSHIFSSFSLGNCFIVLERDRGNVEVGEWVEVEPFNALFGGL
UniProt P11446: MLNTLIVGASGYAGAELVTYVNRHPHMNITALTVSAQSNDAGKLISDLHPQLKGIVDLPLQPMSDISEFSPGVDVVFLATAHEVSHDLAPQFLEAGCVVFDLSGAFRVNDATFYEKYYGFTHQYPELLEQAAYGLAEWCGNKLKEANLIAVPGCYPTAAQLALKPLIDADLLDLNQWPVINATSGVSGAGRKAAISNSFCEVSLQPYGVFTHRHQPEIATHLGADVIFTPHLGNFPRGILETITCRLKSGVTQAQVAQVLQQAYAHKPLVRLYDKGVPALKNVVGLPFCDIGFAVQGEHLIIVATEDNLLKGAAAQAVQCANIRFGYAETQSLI
UniProt P16691: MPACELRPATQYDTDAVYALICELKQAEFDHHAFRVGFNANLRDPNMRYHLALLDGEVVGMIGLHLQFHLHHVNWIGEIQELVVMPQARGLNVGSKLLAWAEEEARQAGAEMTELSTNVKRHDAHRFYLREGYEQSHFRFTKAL
UniProt P16703: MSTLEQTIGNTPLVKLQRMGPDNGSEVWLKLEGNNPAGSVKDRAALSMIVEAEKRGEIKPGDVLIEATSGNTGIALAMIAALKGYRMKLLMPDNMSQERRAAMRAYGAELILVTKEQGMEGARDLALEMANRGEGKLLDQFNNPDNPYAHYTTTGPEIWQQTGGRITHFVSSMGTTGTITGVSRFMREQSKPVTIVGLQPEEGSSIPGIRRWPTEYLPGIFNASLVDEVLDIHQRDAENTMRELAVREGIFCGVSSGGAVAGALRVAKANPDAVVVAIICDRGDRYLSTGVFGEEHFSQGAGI
UniProt P0C0T5: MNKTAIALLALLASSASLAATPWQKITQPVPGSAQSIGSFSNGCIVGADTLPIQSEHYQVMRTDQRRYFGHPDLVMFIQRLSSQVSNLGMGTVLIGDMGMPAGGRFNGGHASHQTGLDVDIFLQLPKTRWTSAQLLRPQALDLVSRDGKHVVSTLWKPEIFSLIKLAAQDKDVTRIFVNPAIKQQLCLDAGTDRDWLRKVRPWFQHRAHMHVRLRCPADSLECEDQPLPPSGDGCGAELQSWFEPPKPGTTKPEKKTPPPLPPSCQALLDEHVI
UniProt P15070: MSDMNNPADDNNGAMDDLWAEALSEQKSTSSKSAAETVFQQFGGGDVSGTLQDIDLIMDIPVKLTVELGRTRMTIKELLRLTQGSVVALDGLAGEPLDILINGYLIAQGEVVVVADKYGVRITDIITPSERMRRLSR
UniProt P16095: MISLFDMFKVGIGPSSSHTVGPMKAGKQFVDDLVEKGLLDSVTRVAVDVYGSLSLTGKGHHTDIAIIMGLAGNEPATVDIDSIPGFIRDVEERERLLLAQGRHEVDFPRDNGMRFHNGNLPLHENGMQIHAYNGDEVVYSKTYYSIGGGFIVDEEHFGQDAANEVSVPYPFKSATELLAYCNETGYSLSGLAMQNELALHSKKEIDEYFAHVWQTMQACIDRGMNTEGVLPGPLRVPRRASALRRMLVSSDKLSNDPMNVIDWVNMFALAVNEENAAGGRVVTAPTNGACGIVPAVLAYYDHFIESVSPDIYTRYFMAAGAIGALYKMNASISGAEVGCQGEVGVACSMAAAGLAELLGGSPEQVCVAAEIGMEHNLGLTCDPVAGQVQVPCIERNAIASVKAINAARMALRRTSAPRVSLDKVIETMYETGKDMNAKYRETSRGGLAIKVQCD
UniProt P0DM85: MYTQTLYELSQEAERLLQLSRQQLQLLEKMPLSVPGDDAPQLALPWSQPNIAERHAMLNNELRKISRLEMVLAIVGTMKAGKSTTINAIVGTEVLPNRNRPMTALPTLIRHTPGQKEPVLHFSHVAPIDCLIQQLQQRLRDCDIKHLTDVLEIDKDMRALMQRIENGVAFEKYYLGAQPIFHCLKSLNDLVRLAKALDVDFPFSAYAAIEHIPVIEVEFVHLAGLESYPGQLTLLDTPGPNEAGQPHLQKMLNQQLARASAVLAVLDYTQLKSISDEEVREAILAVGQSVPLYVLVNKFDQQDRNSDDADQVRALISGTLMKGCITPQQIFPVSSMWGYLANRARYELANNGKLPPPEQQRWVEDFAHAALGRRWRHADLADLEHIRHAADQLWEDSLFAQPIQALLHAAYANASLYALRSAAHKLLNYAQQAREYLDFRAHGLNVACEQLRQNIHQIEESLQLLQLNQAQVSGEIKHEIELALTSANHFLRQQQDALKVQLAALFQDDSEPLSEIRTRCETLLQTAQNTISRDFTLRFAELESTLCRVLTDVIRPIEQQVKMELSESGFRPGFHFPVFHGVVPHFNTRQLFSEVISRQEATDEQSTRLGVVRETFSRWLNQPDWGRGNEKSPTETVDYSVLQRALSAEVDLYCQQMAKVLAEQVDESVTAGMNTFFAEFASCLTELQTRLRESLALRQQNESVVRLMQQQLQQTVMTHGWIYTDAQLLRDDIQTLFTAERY
UniProt P24173: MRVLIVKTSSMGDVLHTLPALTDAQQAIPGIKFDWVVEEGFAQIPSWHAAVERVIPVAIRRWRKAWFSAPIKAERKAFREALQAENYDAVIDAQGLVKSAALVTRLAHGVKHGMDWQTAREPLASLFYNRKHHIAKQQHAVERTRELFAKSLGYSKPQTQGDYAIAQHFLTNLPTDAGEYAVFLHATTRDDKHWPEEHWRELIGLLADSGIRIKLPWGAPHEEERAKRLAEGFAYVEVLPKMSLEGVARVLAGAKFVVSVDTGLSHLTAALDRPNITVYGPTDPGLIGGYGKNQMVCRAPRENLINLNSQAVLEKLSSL

**Q.** “UniProt P21693 (peptide sequence: ELADQVAGELR, peptide start residue: 82)” was tested. Which log2 fold change did it give?
**A.** The log2 fold change was 0.19.

**Q.** For “UniProt P0DP64 (peptide sequence: RVDAGNEIAPLLEVEGMK, peptide start residue: 49)”, which log2 fold change is on record?
**A.** Its log2 fold change is 0.0974.

**Q.** How did the log2 fold change turn out when “UniProt P23524 (peptide sequence: DPLVTTSR, peptide start residue: 105)” was run?
**A.** The log2 fold change was 0.158.

**Q.** How did the log2 fold change turn out when “UniProt P17846 (peptide sequence: ILDYPARPLKTGLLEIAK, peptide start residue: 367)” was run?
**A.** The log2 fold change was -0.635.

**Q.** Which log2 fold change does the source give for “UniProt P10371 (peptide sequence: HVLCTDISR, peptide start residue: 167)” here?
**A.** Its log2 fold change is 0.339.

**Q.** For “UniProt P11072 (peptide sequence: KNLQTTGCESWPK, peptide start residue: 116)”, which log2 fold change is on record?
**A.** The log2 fold change was 0.324.

**Q.** With “UniProt P13035 (peptide sequence: ENGLWIVEAEDIDTGKK, peptide start residue: 178)” as the target, how does the log2 fold change read?
**A.** The log2 fold change was 0.899.

**Q.** “UniProt P23886 (peptide sequence: STLLQQLTR, peptide start residue: 380)” was tested. Which log2 fold change did it give?
**A.** Its log2 fold change is -0.36.

**Q.** Which log2 fold change does the source give for “UniProt P23894 (peptide sequence: WLVNTVATQAR, peptide start residue: 77)” here?
**A.** The log2 fold change was -0.186.

**Q.** How did the log2 fold change turn out when “UniProt P10378 (peptide sequence: SCAYLVVKEPLR, peptide start residue: 474)” was run?
**A.** The log2 fold change was -0.0728.

**Q.** How did the log2 fold change turn out when “UniProt P15081 (peptide sequence: IVDTLFMK, peptide start residue: 65)” was run?
**A.** The log2 fold change was 0.218.

**Q.** “UniProt P21362 (peptide sequence: LTDLAINNVNKK, peptide start residue: 150)” was tested. Which log2 fold change did it give?
**A.** The log2 fold change was -0.0882.

**Q.** How did the log2 fold change turn out when “UniProt P23840 (peptide sequence: ILDHMGSTELAANLFR, peptide start residue: 194)” was run?
**A.** Its log2 fold change is -0.144.

**Q.** For “UniProt P23538 (peptide sequence: DSGVVSELFDER, peptide start residue: 715)”, which log2 fold change is on record?
**A.** The log2 fold change was 0.251.

**Q.** How did the log2 fold change turn out when “UniProt P15028 (peptide sequence: LEQHKER, peptide start residue: 157)” was run?
**A.** The log2 fold change was 0.308.

**Q.** Which log2 fold change does the source give for “UniProt P17117 (peptide sequence: ESRPFILDYLHK, peptide start residue: 223)” here?
**A.** Its log2 fold change is 0.212.

**Q.** How did the log2 fold change turn out when “UniProt P21151 (peptide sequence: INLNGGAIALGHPLGCSGAR, peptide start residue: 332)” was run?
**A.** Its log2 fold change is 0.254.

**Q.** “UniProt P0CF79 (peptide sequence: HNLRGSMSAK, peptide start residue: 212)” was tested. Which log2 fold change did it give?
**A.** Its log2 fold change is 0.448.

**Q.** “UniProt P21517 (peptide sequence: MFNQLDSHDTAR, peptide start residue: 440)” was tested. Which log2 fold change did it give?
**A.** Its log2 fold change is -0.114.

**Q.** For “UniProt P20966 (peptide sequence: AQTATTESK, peptide start residue: 212)”, which log2 fold change is on record?
**A.** The log2 fold change was 0.346.

**Q.** How did the log2 fold change turn out when “UniProt P23898 (peptide sequence: SSLDNVYWQK, peptide start residue: 137)” was run?
**A.** The log2 fold change was 0.236.

**Q.** Which log2 fold change does the source give for “UniProt P12281 (peptide sequence: RGEDISAGAVVFPAGTR, peptide start residue: 139)” here?
**A.** The log2 fold change was -0.292.

**Q.** How did the log2 fold change turn out when “UniProt P18355 (peptide sequence: SQAVRLPK, peptide start residue: 11)” was run?
**A.** The log2 fold change was -0.378.

**Q.** How did the log2 fold change turn out when “UniProt P21513 (peptide sequence: QAQQQTAETRESR, peptide start residue: 645)” was run?
**A.** Its log2 fold change is -1.29.

**Q.** For “UniProt P11446 (peptide sequence: GILETITCR, peptide start residue: 238)”, which log2 fold change is on record?
**A.** The log2 fold change was -0.306.

**Q.** With “UniProt P16691 (peptide sequence: EGYEQSHFR, peptide start residue: 131)” as the target, how does the log2 fold change read?
**A.** Its log2 fold change is -0.073.

**Q.** How did the log2 fold change turn out when “UniProt P16703 (peptide sequence: LLMPDNMSQER, peptide start residue: 89)” was run?
**A.** The log2 fold change was 0.142.

**Q.** For “UniProt P0C0T5 (peptide sequence: WTSAQLLRPQALDLVSR, peptide start residue: 130)”, which log2 fold change is on record?
**A.** Its log2 fold change is 0.188.

**Q.** “UniProt P17802 (peptide sequence: CYAVSGWPGKK, peptide start residue: 148)” was tested. Which log2 fold change did it give?
**A.** Its log2 fold change is 0.185.

**Q.** Which log2 fold change does the source give for “UniProt P15070 (peptide sequence: ITDIITPSER, peptide start residue: 122)” here?
**A.** The log2 fold change was -0.031.

**Q.** How did the log2 fold change turn out when “UniProt P16095 (peptide sequence: ETSRGGLAIKVQCD, peptide start residue: 441)” was run?
**A.** Its log2 fold change is -0.356.

**Q.** With “UniProt P0DM85 (peptide sequence: FAELESTLCR, peptide start residue: 539)” as the target, how does the log2 fold change read?
**A.** Its log2 fold change is -0.209.

**Q.** How did the log2 fold change turn out when “UniProt P24173 (peptide sequence: ELIGLLADSGIR, peptide start residue: 201)” was run?
**A.** The log2 fold change was 0.227.

Reference: the supplement of paper PMC12819154, “High-throughput peptide-centric local stability assay extends protein–ligand identification to membrane proteins, tissues and bacteria” (Nature Structural & Molecular Biology, 2025)
